Data reported in PubChem BioAssay AID1487 (National Center for Advancing Translational Sciences (NCATS), 2009).
The list shows a part of the results. Shown are side measurements of this screen, not its main read-out; they come without a call. Compounds called inactive in the main read-out are mostly missing here. Potencies come from curve fits of mixed quality, noted in brackets.

Assay: qHTS Assay for Modulators of Lamin A Splicing
Settings: HeLa LMNA splicing GFP/RFP minigene ratio, 48 h
In short: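 S3 HeLa stable clones carrying a lamin A-EGFP splicing minigene plus DsRed2 were seeded at 600 cells/well in Opti-MEM with 2% FBS, pin-dosed and incubated 48 h at 37°C. Acumen cytometry (488 nm) gave the GFP/RFP total-intensity ratio.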

[1] = measured here: GFP splicing reporter channel
[2] = measured here: RFP viability control channel

Structure (SMILES)	AC50 [1]	AC50 [2]
CCc1nnc(NS(=O)(=O)c2ccc(NC(=S)NC(=O)/C=C/c3ccc(C(C)C)cc3)cc2)s1	0.0398 µM [falling, single point]	0.0316 µM [falling, single point]
Cc1nc(-c2ccc(Cl)cc2)sc1C(=O)O	0.447 µM [rising, full curve, poor fit]	–
O=C(c1cc(-c2ccco2)on1)N1CCN(c2ccccc2)CC1	–	17.8 µM [rising, single point]
Cc1cc(C)nc(Nc2n[nH]c(C)n2)n1	–	0.0112 µM [rising, full curve, poor fit]
CCOc1ccc(Cc2n[nH]c(=S)n2Cc2ccccc2)cc1	–	31.6 µM [rising, single point]
Cc1ccc(N=c2c([N+](=O)[O-])nn(-c3ccc4c(c3)OCCO4)n2O)c(Cl)c1	10 µM [falling, partial curve]	10 µM [falling, partial curve]
O=C(NC(=S)Nc1ccccc1O)c1ccc(-c2ccc(Cl)cc2)o1	–	17.8 µM [rising, single point]
CCOC(=O)C(CC)Sc1ccc2nnc(CCNS(=O)(=O)c3ccccc3)n2n1 (configuration not stated)	20 µM [rising, partial curve, poor fit]	–
Cc1nnn(C23CC4CC(CC(CC(=O)Nc5ccc(C)c(C)c5)(C4)C2)C3)n1	–	35.5 µM [rising, single point]
Cc1ccc(N2C(=O)c3ccccc3NC2C(C)Cc2ccc3c(c2)OCO3)cc1 (configuration not stated)	–	35.5 µM [rising, single point]
Cc1ccc(C(=O)CC(SCC(=O)O)c2ccc([N+](=O)[O-])cc2)cc1 (configuration not stated)	0.0891 µM [falling, full curve, poor fit]	14.1 µM [falling, partial curve]
COc1ccc(CC(=O)NC(C)c2nnc(SCC(=O)Nc3ccccc3F)n2C)cc1 (configuration not stated)	4.47 µM [rising, partial curve, poor fit]	–
O=C(Nc1ccc(Br)cc1)c1ccc(Br)c(S(=O)(=O)N2CCCCC2)c1	0.00355 µM [falling, full curve, poor fit]	0.00501 µM [falling, full curve, poor fit]
O=C(O)CCn1c(CO)nc2ccccc21	7.94 µM [rising, partial curve]	14.1 µM [rising, partial curve]
Cc1c(CCOC(=O)C23CC4CC(CC(C4)C2)C3)sc[n+]1Cc1ccccc1	11.2 µM [rising, partial curve]	22.4 µM [rising, partial curve]
O=C(/C=C/c1cccc([N+](=O)[O-])c1)NCCSCc1ccccc1Cl	–	12.6 µM [rising, partial curve]
CCOc1cc(C2C(C#N)=C(N)OC(C)=C2C(C)=O)c(Br)c(Br)c1OC(C)C (configuration not stated)	35.5 µM [falling, single point]	31.6 µM [falling, single point]

Structure (SMILES)	AC50 [1]	AC50 [2]
CCN(CC)C(=O)Oc1ccc(Br)c2ccccc12	35.5 µM [rising, single point]	35.5 µM [rising, single point]
Cn1c(=O)n(CCc2ccccc2)c(=O)c2c1ncn2Cc1ccccc1	22.4 µM [rising, single point]	–
COC(=O)c1c(C)[nH]c(C(=O)C(C)Sc2nnc(-c3cc(OC)c(OC)c(OC)c3)o2)c1C (configuration not stated)	–	12.6 µM [rising, single point]
CCn1c(COc2ccccc2)nnc1SCC(=O)C(C)(C)C	–	17.8 µM [rising, single point]
COc1ccc(N(CC(=O)N/N=C/c2ccc3c(c2)OCO3)S(=O)(=O)c2ccc(NC(C)=O)cc2)cc1	12.6 µM [falling, single point]	–
COc1ccc2cc3cc(C(=O)NCCc4ccccc4)sc3nc2c1Cl	11.2 µM [falling, partial curve, poor fit]	35.5 µM [falling, partial curve, poor fit]
Cc1ccc(NC(=O)CCNC(=O)c2ccc([N+](=O)[O-])cc2)cc1S(=O)(=O)N(C)C	0.316 µM [falling, full curve, poor fit]	–
Cc1nc2cc(C(=O)NCc3ccc4c(c3)OCO4)ccc2n1-c1ccc(Br)cc1	–	1.26 µM [rising, partial curve, poor fit]
CC(C)n1c(O)c(N=Nc2ccccn2)c2ccccc21	–	3.16 µM [rising, full curve]
CCOc1ccc(NC(=O)CSc2nc3cccnc3n2CC)cc1	–	35.5 µM [rising, partial curve, poor fit]
Cc1ccc(NC(=O)/C=C/c2ccc3c(c2)OCO3)cc1S(=O)(=O)N1CCOCC1	25.1 µM [rising, single point]	15.8 µM [rising, partial curve]
CCN1CCCc2cc(CN(CCN3CCOCC3)C(=S)Nc3ccccc3C)ccc21	–	0.00355 µM [falling, full curve, poor fit]
Cc1ccc(S(=O)(=O)N2CCN(c3c([N+](=O)[O-])cc(C(F)(F)F)cc3[N+](=O)[O-])CC2)cc1	7.94 µM [rising, partial curve]	12.6 µM [rising, partial curve]
CN(c1ccc(OCC(=O)N2CCCCC2)cc1)S(=O)(=O)c1cccs1	25.1 µM [rising, single point]	25.1 µM [rising, single point]
COc1ccc(C)cc1N(C(=O)COc1cccc(F)c1)c1nc2ccccc2s1	–	11.2 µM [rising, partial curve, poor fit]
O=S(=O)(Nc1ccc(-c2ccc(N3CCCCCC3)nn2)cc1)c1ccc(C(F)(F)F)cc1	–	2.82 µM [rising, partial curve, poor fit]
Cc1cc(C)n(-c2ccc(C(=O)Nc3nnc(C)s3)cc2)n1	35.5 µM [rising, single point]	31.6 µM [rising, single point]

Seven consecutive entries from above:
Structure (SMILES)	AC50 [1]	AC50 [2]
Cn1c(=O)n(CCc2ccccc2)c(=O)c2c1ncn2Cc1ccccc1	22.4 µM [rising, single point]	–
COC(=O)c1c(C)[nH]c(C(=O)C(C)Sc2nnc(-c3cc(OC)c(OC)c(OC)c3)o2)c1C (configuration not stated)	–	12.6 µM [rising, single point]
CCn1c(COc2ccccc2)nnc1SCC(=O)C(C)(C)C	–	17.8 µM [rising, single point]
COc1ccc(N(CC(=O)N/N=C/c2ccc3c(c2)OCO3)S(=O)(=O)c2ccc(NC(C)=O)cc2)cc1	12.6 µM [falling, single point]	–
COc1ccc2cc3cc(C(=O)NCCc4ccccc4)sc3nc2c1Cl	11.2 µM [falling, partial curve, poor fit]	35.5 µM [falling, partial curve, poor fit]
Cc1ccc(NC(=O)CCNC(=O)c2ccc([N+](=O)[O-])cc2)cc1S(=O)(=O)N(C)C	0.316 µM [falling, full curve, poor fit]	–
Cc1nc2cc(C(=O)NCc3ccc4c(c3)OCO4)ccc2n1-c1ccc(Br)cc1	–	1.26 µM [rising, partial curve, poor fit]
